# Laboratory results taken from PMC8616936.
# Results are given in words; binding and its absence hold for the method and conditions named. In cells and extracts the contact can be indirect. Binding calls can cover weak binding; strength is not graded here.
# Target: T1, C. elegans DROSHA (C. elegans) (UniProt O01326)
# T1 sequence: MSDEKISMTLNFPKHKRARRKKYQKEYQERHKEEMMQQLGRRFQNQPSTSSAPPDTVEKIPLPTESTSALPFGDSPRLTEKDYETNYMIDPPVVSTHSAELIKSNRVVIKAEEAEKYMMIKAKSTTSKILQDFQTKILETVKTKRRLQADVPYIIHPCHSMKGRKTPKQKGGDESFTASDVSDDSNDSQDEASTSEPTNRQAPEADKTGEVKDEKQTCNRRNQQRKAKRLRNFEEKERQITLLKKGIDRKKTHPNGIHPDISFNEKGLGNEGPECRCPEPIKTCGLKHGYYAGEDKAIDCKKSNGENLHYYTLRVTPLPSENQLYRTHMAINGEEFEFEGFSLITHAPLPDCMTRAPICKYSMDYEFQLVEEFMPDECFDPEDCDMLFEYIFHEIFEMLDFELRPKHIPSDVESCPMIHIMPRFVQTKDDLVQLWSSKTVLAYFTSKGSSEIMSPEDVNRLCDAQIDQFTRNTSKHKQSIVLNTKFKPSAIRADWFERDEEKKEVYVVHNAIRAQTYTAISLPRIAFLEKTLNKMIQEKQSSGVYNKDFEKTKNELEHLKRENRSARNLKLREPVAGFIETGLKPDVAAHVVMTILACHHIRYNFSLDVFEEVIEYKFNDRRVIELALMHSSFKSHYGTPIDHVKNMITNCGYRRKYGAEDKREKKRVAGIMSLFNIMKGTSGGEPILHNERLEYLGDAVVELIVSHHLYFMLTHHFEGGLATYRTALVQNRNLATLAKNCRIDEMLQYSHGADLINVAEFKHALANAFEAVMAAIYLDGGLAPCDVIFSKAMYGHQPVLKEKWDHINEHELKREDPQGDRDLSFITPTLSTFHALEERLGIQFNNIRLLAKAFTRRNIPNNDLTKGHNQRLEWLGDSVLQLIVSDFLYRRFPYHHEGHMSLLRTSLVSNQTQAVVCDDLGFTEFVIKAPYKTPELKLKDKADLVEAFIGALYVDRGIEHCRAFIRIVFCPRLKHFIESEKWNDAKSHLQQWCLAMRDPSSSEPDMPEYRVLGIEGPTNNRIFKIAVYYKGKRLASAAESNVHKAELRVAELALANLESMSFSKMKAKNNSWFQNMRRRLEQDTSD
# Test: tandem affinity co-purification (Ni-NTA, then IgG sepharose); both proteins co-expressed in HEK293E; lysate in T500 (20 mM Tris-HCl pH 7.5, 500 mM NaCl, 4 mM beta-mercaptoethanol) with 2 ug/ml RNase A; Ni-NTA (His tag on the DGCR8 ortholog), washes with 0 and 2000 mM NaCl and 50 mM imidazole, eluted with 300 mM imidazole; eluate bound to IgG sepharose (protein G on DROSHA) at 4 °C for 4 h
substance,measurement,value
C. elegans PASH-1,binding,binds
